Laboratory results reported in the supplement of paper PMC11150407.
Among all 2,100 compounds or so, about 180 (8.6%) showed an effect of 50% or more. The list shows a part of the results.

System: MOLM1 and UCSD/AML1 (averaged)
Assay: cell viability relative to DMSO control (POC); higher = less growth inhibition
Conditions: 1 µM; 72 h
Procedure: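 Primary viability screen in the 3q26 EVI1-high AML cell lines MOLM1 and UCSD/AML1 (1.5e3 cells/well, 384-well), compounds at 1 uM for 72 h. ATP CellTiter-Glo read-out given as percent of viable cells over DMSO control (POC), averaged over duplicates. DMSO was the negative control and 5 uM etoposide the positive control. This mapping covers the MicroSource Spectrum and Selleck anticancer libraries (drug names).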

First: CCC(=O)NCC[C@@H]1CCc2ccc3c(c21)CCO3
Second: CC[C@]12CCCN3CCc4c(n(c5ccccc45)[C@@](O)(C(=O)OC)C1)[C@@H]32
The cell viability of the first is lower: 98.1% for the first, 107% for the second.

Going from CC[C@H](/C=C/[C@@H](C)[C@H]1CC[C@H]2[C@@H]3CCC4=CC(=O)CC[C@]4(C)[C@H]3CC[C@]12C)C(C)C to CC(C)CCC[C@@H](C)[C@H]1CC[C@H]2[C@@H]3CC=C4C[C@@H](O)CC[C@]4(C)[C@H]3CC[C@]12C, the cell viability falls from 108% to 105%.

First: COc1c2c(cc3occ(-c4ccc5c(c4)OCO5)c(=O)c13)OC(C)(C)C=C2
Second: COc1ccc(-c2coc3cc(O)cc(O)c3c2=O)cc1
The cell viability of the first is higher: 128% for the first, 106% for the second.

Compared with COc1ccc(CC(=O)c2ccc(O)cc2O)cc1, CCCCOc1ccc(CC(=O)NO)cc1 is higher in cell viability: 107% for the first, 115% for the second.

Compared with CCOC(=O)c1ccc(O)cc1, CCCCC(CC)COC(=O)c1ccccc1O (centres undefined) is lower in cell viability: 102% for the first, 93.2% for the second.

Going from COc1ccc2cc1Oc1ccc(cc1)C[C@H]1c3c(cc4c(c3Oc3cc5c(cc3OC)CCN(C)[C@@H]5C2)OCO4)CCN1C to COc1ccc2c(c1)OCC(Cc1ccc(OC)c(OC)c1)C2=O (centres undefined), the cell viability rises from 81.5% to 112%.

Going from O=C(O)c1ccccc1Nc1cccc(OCc2ccc3ccccc3n2)c1 to CC(C)c1onc(-c2c(Cl)cccc2Cl)c1COc1ccc(/C=C/c2cccc(C(=O)O)c2)c(Cl)c1, the cell viability falls from 91.3% to 81.8%.

Compared with COc1ccc(COc2cc3oc(=O)c4cc(C(C)O)ccc4c3cc2OC)cc1 (centres undefined) [Palomid 529], COc1ccc([C@H]2Oc3cc(OC)cc(OC)c3C[C@H]2O)cc1 is higher in cell viability: 87.1% for the first, 98.4% for the second.

Compared with Cc1c(OCC(F)(F)F)ccnc1C[S+]([O-])c1nc2ccccc2[nH]1 (centres undefined), c1ccc2c(-c3cnn4cc(-c5ccc(N6CCNCC6)cc5)cnc34)ccnc2c1 is lower in cell viability: 87.6% for the first, 37.8% for the second.

First: CC[C@@H]1C(=O)N(C)c2cnc(Nc3ccc(C(=O)NC4CCN(C)CC4)cc3OC)nc2N1C1CCCC1
Second: CC[C@]1(O)C[C@@H]2CN(CCc3c([nH]c4ccccc34)[C@@](C(=O)OC)(c3cc4c(cc3OC)N(C)[C@H]3[C@@](O)(C(=O)OC)[C@H](OC(C)=O)[C@]5(CC)C=CCN6CC[C@]43[C@@H]65)C2)C1
The cell viability of the first is higher: 13.2% for the first, 7.14% for the second.

Compared with Cn1c(=O)c2c(ncn2C)n(C)c1=O, Cn1cnc(N)c2ncnc1-2 [3-Methyladenine (3-MA)] is lower in cell viability: 112% for the first, 90.3% for the second.

First: O=C(O)c1cc(=O)c2c(OCC(O)COc3cccc4oc(C(=O)O)cc(=O)c34)cccc2o1
Second: CCCc1nc(C(C)(C)O)c(C(=O)OCc2oc(=O)oc2C)n1Cc1ccc(-c2ccccc2-c2nnn[nH]2)cc1
The cell viability of the first is higher: 99.5% for the first, 88.1% for the second.

First: CCCCC[C@H](CC(=O)NO)C(=O)N[C@H](C(=O)N1CCC[C@H]1CO)C(C)C
Second: Nc1nc(=O)c2c([nH]1)NCC(CNc1ccc(C(=O)N[C@@H](CCC(=O)O)C(=O)O)cc1)N2C=O (some centres undefined)
The cell viability of the first is lower: 93.3% for the first, 100% for the second.

Compared with C=CCc1ccccc1OCC(O)CNC(C)C (centres undefined), CN(C)CCC(c1ccccc1)c1ccccn1 (centres undefined) is higher in cell viability: 89.4% for the first, 103% for the second.

First: NC[C@H]1CC[C@H](C(=O)O)CC1
Second: CO/N=C1\CN(c2nc3c(cc2F)c(=O)c(C(=O)O)cn3C2CC2)CC1CN (centres undefined)
The cell viability of the first is higher: 115% for the first, 90.1% for the second.

Compared with Oc1c(Cl)cc(Cl)cc1Sc1cc(Cl)cc(Cl)c1O, Clc1ccc(COC(Cn2ccnc2)c2ccc(Cl)cc2Cl)cc1 (centres undefined) is lower in cell viability: 98.8% for the first, 87% for the second.

Compared with CC(=O)OC(C)C[N+](C)(C)C (centres undefined), CCN(CC)C(=O)N1CCN(C)CC1 is higher in cell viability: 89.5% for the first, 113% for the second.

Compared with Nc1nc(=O)c2c([nH]1)NCC(CNc1ccc(C(=O)N[C@@H](CCC(=O)O)C(=O)O)cc1)N2C=O (some centres undefined) [Leucovorin Calcium], CC1=C(C(=O)O)N2C(=O)[C@@H](NC(=O)[C@H](N)c3ccc(O)cc3)[C@H]2SC1 is lower in cell viability: 99.3% for the first, 99.1% for the second.

Compared with Cc1cccc(Nc2nc(-c3ccncc3)cs2)c1, Clc1ccccc1C(c1ccccc1)(c1ccccc1)n1ccnc1 is lower in cell viability: 98.9% for the first, 94.4% for the second.

First: O=C(O)/C=C/C=C/c1ccc2c(c1)OCO2
Second: CC(C)=CCC/C(C)=C/COc1ccc2ccc(=O)oc2c1
The cell viability of the first is higher: 109% for the first, 92.6% for the second.

First: CCOc1ccc(Cc2cc([C@@H]3O[C@H](CO)[C@@H](O)[C@H](O)[C@H]3O)ccc2Cl)cc1 [Dapagliflozin]
Second: OC[C@H]1O[C@@H](O[C@H]2[C@H](O)[C@@H](O)[C@@H](O)O[C@@H]2CO)[C@H](O)[C@@H](O)[C@@H]1O
The cell viability of the first is higher: 128% for the first, 105% for the second.

First: CC[C@]1(O)C[C@@H]2CN(CCc3c([nH]c4ccccc34)[C@@](C(=O)OC)(c3cc4c(cc3OC)N(C)[C@H]3[C@@](O)(C(=O)OC)[C@H](OC(C)=O)[C@]5(CC)C=CCN6CC[C@]43[C@@H]65)C2)C1 [Vinblastine]
Second: CCOc1nc2cccc(C(=O)OC(C)OC(=O)OC3CCCCC3)c2n1Cc1ccc(-c2ccccc2-c2nn[nH]n2)cc1 (centres undefined)
The cell viability of the first is lower: 8.43% for the first, 88.9% for the second.

Going from C[C@H]1CC[C@@H](C(C)(C)O)CC2=C1CC[C@@H]2C to CNC1(C)C2CCC(C2)C1(C)C (centres undefined), the cell viability rises from 94.4% to 102%.

Compared with CC(=O)[C@H]1CC[C@H]2[C@@H]3CC=C4C[C@@H](OC(=O)CCC(=O)O)CC[C@]4(C)[C@H]3CC[C@]12C, C[C@@H]1CC2C3C[C@H](F)C4=CC(=O)C=C[C@]4(C)[C@@]3(F)[C@@H](O)C[C@]2(C)[C@@]1(O)C(=O)COC(=O)C(C)(C)C (some centres undefined) is lower in cell viability: 80.6% for the first, 70.2% for the second.

CCN(CCCc1ccccc1)CCCc1ccccc1 and CCCC(C(=O)OCCN(CC)CC)(c1ccccc1)c1ccccc1 are the same in cell viability: 96.5% for the first, 96.5% for the second.

Compared with O=P(O)(O)C(O)(Cc1cccnc1)P(=O)(O)O, NC(=O)c1cccnc1 is higher in cell viability: 76.8% for the first, 94.4% for the second.

Compared with O=C(O)c1cc(O)c(O)c(O)c1, Cn1c(=O)c(F)c(Nc2ccc(I)cc2F)c2c(=O)n(C[C@@H](O)CO)cnc21 is lower in cell viability: 104% for the first, 24.8% for the second.

Going from CN1CCC[C@H]1c1cccnc1 to CC1=CCCC(C)=CCC(C)(C)C=CC1 [HUMULENE (alpha)], the cell viability falls from 115% to 113%.

Compared with O=S(=O)(O)CCSSCCS(=O)(=O)O [Dimesna], Nc1ccc(S(N)(=O)=O)cc1 is lower in cell viability: 112% for the first, 97.1% for the second.

Compared with NC(=O)NO, NC(=O)C1(N2CCCCC2)CCN(CCCC(=O)c2ccc(F)cc2)CC1 is lower in cell viability: 102% for the first, 87.1% for the second.

Compared with CCCCCCCCCCCCCCCC[N+](C)(C)C, Cc1[nH]c(/C=C2\C(=O)Nc3ccc(S(=O)(=O)Cc4c(Cl)cccc4Cl)cc32)c(C)c1C(=O)N1CCC[C@@H]1CN1CCCC1 is higher in cell viability: 43.7% for the first, 92.1% for the second.

Compared with C=C(NC(=O)C(=C)NC(=O)c1csc(C2=N[C@@H]3c4csc(n4)[C@H]4NC(=O)c5csc(n5)[C@H]([C@](C)(O)[C@@H](C)O)NC(=O)[C@H]5CSC(=N5)/C(=C/C)NC(=O)[C@H]([C@@H](C)O)NC(=O)c5csc(n5)[C@]3(CC2)NC(=O)[C@H](C)NC(=O)C(=C)NC(=O)[C@H](C)NC(=O)[C@H]([C@@H](C)CC)N[C@@H]2C=Cc3c([C@H](C)O)cc(nc3[C@H]2O)C(=O)O[C@@H]4C)n1)C(N)=O, Nc1ncnc2c1ncn2[C@H]1C[C@H](O)[C@@H](CO)O1 is higher in cell viability: 78.1% for the first, 90.9% for the second.
